PubChem BioAssay AID743121 | NCATS | 2013
Screen: 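Genes whose silencing strengthens cell killing by camptothecin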 (primary screen). Cells: MDA-MB-231 cells, a human breast cancer line. Reagents: single siRNA against human genes, 20 nM siRNA (0.8 pmol per well). Time to read-out: 120 h (drug added 48 h after transfection, read 72 h later). Challenge: camptothecin 20 nM (about EC30) for 72 h; vehicle 0.1% DMSO in parallel plates. Detection: 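CellTiter-Glo ATP signal, scaled to control siRNA as percent viability; sensitisation given as log2 of untreated divided by camptothecin-treated viability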. Direction: log2 vehicle/camptothecin viability: higher = stronger sensitisation to camptothecin; viability with camptothecin: higher = more viable cells. Units: viability with camptothecin in % of control. Call rule: 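Each gene scored by redundant siRNA activity (RSA) over its individual siRNA ratios; a gene is called active at p < 0.001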.
This is a random part of about 26,000 reagents tested. 167 of them (0.63%) were called active. 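Calls are per gene from RSA p-values that are not deposited; an individual active-marked siRNA can sensitise only weakly.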 The numbers tell different reagents against one gene apart. Further read-outs or replicates are left out here.

What is on record for SDR16C5 (short chain dehydrogenase/reductase family 16C member 5) #1?
log2 vehicle/camptothecin viability: -0.358; viability with camptothecin: 92.7; Outcome: inactive

How did the screen score SDR16C5 (short chain dehydrogenase/reductase family 16C member 5) #2?
log2 vehicle/camptothecin viability: 0.0674; viability with camptothecin: 91.9; Outcome: inactive

What is on record for SDR16C5 (short chain dehydrogenase/reductase family 16C member 5) #3?
log2 vehicle/camptothecin viability: -0.465; viability with camptothecin: 121; Outcome: inactive

For SDR16C5 (short chain dehydrogenase/reductase family 16C member 5) #4, what does the deposit list?
log2 vehicle/camptothecin viability: -0.569; viability with camptothecin: 81.6; Outcome: inactive

Which result is listed for ITGAL (integrin subunit alpha L) #1?
log2 vehicle/camptothecin viability: 0.15; viability with camptothecin: 52.2; Outcome: inactive

How did the screen score ITGAL (integrin subunit alpha L) #2?
log2 vehicle/camptothecin viability: -0.482; viability with camptothecin: 32.6; Outcome: inactive

How did the screen score ITGAL (integrin subunit alpha L) #3?
log2 vehicle/camptothecin viability: -0.172; viability with camptothecin: 108; Outcome: inactive

For ITGAL (integrin subunit alpha L) #4, how do the results read?
log2 vehicle/camptothecin viability: 0.236; viability with camptothecin: 53.8; Outcome: inactive

What is on record for DNAJA1 (DnaJ heat shock protein family (Hsp40) member A1) #1?
log2 vehicle/camptothecin viability: -0.353; viability with camptothecin: 68.6; Outcome: inactive

Which result is listed for DNAJA1 (DnaJ heat shock protein family (Hsp40) member A1) #2?
log2 vehicle/camptothecin viability: -0.104; viability with camptothecin: 98.8; Outcome: inactive

How did the screen score DNAJA1 (DnaJ heat shock protein family (Hsp40) member A1) #3?
log2 vehicle/camptothecin viability: 0.305; viability with camptothecin: 92.1; Outcome: inactive

With DNAJA1 (DnaJ heat shock protein family (Hsp40) member A1) #4, what does the deposit list?
log2 vehicle/camptothecin viability: -0.0432; viability with camptothecin: 80.2; Outcome: inactive

With TRPC6 #1, how do the results read?
log2 vehicle/camptothecin viability: -0.161; viability with camptothecin: 105; Outcome: inactive

For TRPC6 #2, how do the results read?
log2 vehicle/camptothecin viability: 0.643; viability with camptothecin: 40.5; Outcome: inactive

For TRPC6 #3, what does the deposit list?
log2 vehicle/camptothecin viability: -0.0236; viability with camptothecin: 105; Outcome: inactive
